# Primary screen of a compound library

Data taken from ChEMBL document CHEMBL3988442, “University of Dundee, Small-Polar-MMV Screening Library” (2021).

Results are given as percent effect.
The record does not define 0% and 100%; most values in the screen are far below 50% and negative numbers occur (in some assays of this library far below -100).
Compounds were drawn at random from those tested, without regard to their results.
Two or more numbers in one place are separate tests of the same structure; such repeats can differ widely.

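Viability assay of Plasmodium falciparum sporozoites; the read-out is not stated. The concentration is filed as 10 mM, unlikely as a test dose, so the dose is not known. Direction is inferred from retests: higher values go with lower viability. Strong results were mostly tested again. Of about 34,000 compounds tested this way, about 280 (0.84%) reached 50% or more in at least one test.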

compound	effect
CC(=O)N1CCc2[nH]nc(C(=O)N3CC=CC3)c2C1	-3.152
O=C(NCCN1CCCC1)C1(c2ccc(Cl)cc2)CCOCC1	1.27
[H][C@@]12C[C@@H](C(=O)NC(C)C)CN(Cc3ccc4ccccc4n3)[C@]1([H])CCO2	2.32 & -21.19 & -4.212
O=C(O)C(F)(F)F.[H][C@]12CCCN(Cc3ccc(F)cc3)[C@@]1([H])CN(C(=O)c1ccco1)C2	-17.76
CCOc1cccc2c1OCC(C(=O)NS(=O)(=O)c1cncc(Br)c1)=C2	-0.94
Cl.NCC1CCCCN1C(=O)Cc1cccc(Br)c1 (centres unmarked)	-15.54
CN(C)[C@H]1CN(C(=O)CCCc2ccc(F)cc2)C[C@@H]1C1CC1	-11.23
Cc1noc(C)c1C(=O)N1CCCC1(C)C(=O)NC1CCCC1 (centres unmarked)	-10.49
O=C(C1CC=CC1)N1CCC2(CC1)CN(Cc1ccccn1)CCO2	-15.77
CCC(C)NC(=O)CS(=O)(=O)Cc1cc(Cl)c2c(c1)OCCCO2 (centres unmarked)	-2.005
C/C(=C\c1ccco1)CN(C)C(C)Cc1ccccn1 (centres unmarked)	0.3286
[H][C@@]12CCNCC1OCCN2C(=O)c1ccccc1 (some centres unmarked)	4.553
c1ccc(CCN2CCCC2c2cncc(Nc3nncs3)n2)cc1 (centres unmarked)	3.9
OCCNC1CCc2cc3c(cc21)OCCO3 (centres unmarked)	13.92 & 10.18
CCSc1cc(C(=O)NCCc2nnc(-c3ccco3)[nH]2)ccn1	-5.147
COCC(=O)N1CCCC(c2noc3nc(C)cc(C(F)(F)F)c23)C1 (centres unmarked)	12.98
Cc1c(C)n2c(SCC(=O)N3CCOCC3)nnc2[nH]c1=O	-23.72 & -23.81
CCc1nc(CC(=O)N2CCCC2Cn2cccn2)cs1 (centres unmarked)	-8.088
CC(C)COCCC(=O)Nc1ccc2oc(=O)n(CCN(C)C)c2c1	0.2451
Cc1ccc(-c2nc(CCNC(=O)NCC(C)(C)C(N)=O)co2)cc1	10.71
CN1CCCCC1(C)C(=O)N1CCC(c2ccccn2)CC1 (centres unmarked)	5.39
CCCc1cc(C(=O)Nc2nc(SC)ns2)n(C)n1	19.42
CC(C)c1n[nH]c(C2CN(CCCS(C)(=O)=O)CCO2)n1 (centres unmarked)	5.316
CCCc1nc(CNCC2CCCN2c2cccnn2)cs1 (centres unmarked)	16.72
NC(=O)N1CCCC1COC(=O)c1ccc(F)cc1Br (centres unmarked)	1.143
CCc1csc(C2CCCN(C(=O)c3cnn(CC)c3)C2)n1 (centres unmarked)	-3.044
CN(C1CCCN(c2ccccn2)C1)S(C)(=O)=O (centres unmarked)	-15.36
Cc1nnn2c1COC(CNCc1nccs1)C2.O=C(O)C(F)(F)F (centres unmarked)	-21.66
CC(C)(C)OC(=O)N1CCCC[C@H]1C(=O)NCc1nccs1	0.692
CC(C)(C)Nc1c(C2CCCN(C(=O)C3CC3)C2)nc2ccccn12.Cl (centres unmarked)	7.536
COCC(=O)NCc1ccc(-c2ccccc2C(=O)O)cn1	9.892
[H][C@@]12CN(C(=O)c3cnn(C)c3)CCO[C@]1([H])CN(C1CCC1)C2	-5.026
Cc1ccc(CC(=O)N2Cc3nccn3CC(CN(C)C)C2)cc1.O=C(O)C(F)(F)F (centres unmarked)	-2.339
FC(F)(F)c1cc(C2CCCN(c3cnccn3)C2)n2ccnc2n1 (centres unmarked)	6.214
[H][C@@]12CN(c3ncnc4sccc34)C[C@]1(C(=O)O)CN(CC1CC1)C2=O	-17.69
Cc1cn2c(n1)CCC(NC(=O)c1cc[nH]n1)C2 (centres unmarked)	2.695
c1cc(CN2CCN(Cc3cscn3)CC2)cs1	-16.42
CCCN1CCC(c2nc3ccc(-c4cccc(F)c4)cn3n2)CC1.O=C(O)C(F)(F)F	4.219
CN1CCCN(C(=O)NCc2cc(Br)cs2)CC1	0.2681
[H][C@]12CC[C@]([H])(CN(C(=O)c3cccnc3)C1)N(Cc1ccccc1C#N)C2	-9.912
CCC[C@H]1CN(C(=O)c2ccc3[nH]c(CO)nc3c2)C[C@@H]1N	2.686
COCCN1CCc2c(cnc(-c3ccoc3)c2C(=O)O)C1.O=C(O)C(F)(F)F	-9.489
Cc1nccn1C1CCCN(C(=O)c2cc3c(F)cccc3[nH]2)C1 (centres unmarked)	11.73
COc1ccc(Cl)cc1NCC(=O)NCCc1ccccn1	-0.64
CCCS(=O)(=O)N1CC(=O)N(Cc2ccccc2OC)CC(O)C1 (centres unmarked)	-34.6
CC(C)C(O)CCNC(=O)Nc1cc(F)ccc1-n1cccn1 (centres unmarked)	-0.5549
[H][C@@]12C[C@@H](O)CN1C[C@H](Cc1ccccc1)N(Cc1cnc(OC)nc1)C2	17.5
Cc1oc(C(=O)O)cc1S(=O)(=O)Nc1cc(F)ccc1F	-12.82
COc1ccc(C(=O)N2CCCC(CNS(C)(=O)=O)C2)cc1F (centres unmarked)	8.592 & 0.64 & -1.911
[H][C@@]12COC[C@]1([H])[C@H](NC(=O)c1cscn1)CN2c1ncc(F)cn1	-22.74
CN(Cc1ccccc1)c1cnn(CC2CCCCO2)c(=O)c1 (centres unmarked)	-18.43
Cc1cnc(-c2nc(NC3CC3)ncc2-c2onc(C)c2C)cn1	12.62
O=C(O)c1ccccc1-n1cnc(CN2CCCc3ccccc32)c1	6.716
CN(C(=O)c1cccc(C(=O)NCC(F)(F)F)c1)c1ccccc1	4.58
CCc1nc2c(N3CCC4(CC3)CNC(=O)C4)ncnc2o1	0.1095
Cc1ccc(-c2nnc(CN3CCOC(Cn4cncn4)C3)o2)cc1 (centres unmarked)	-1.545
CCN(C(=O)c1nc2c(s1)CCCN2S(C)(=O)=O)C(C)C	15.33
Cc1cc(NC(=O)C(C)N2CCCN(c3nccs3)CC2)on1 (centres unmarked)	-152
CCN(CC1CCOC1)C(=O)CSCC(=O)Nc1ccc(C)cc1 (centres unmarked)	-4.272
Cc1cnn(CC2CCCCN2C(=O)c2ccc3nnc(C)n3c2)c1 (centres unmarked)	21.5
O=C(O)CCc1nc2nccc(-c3ccc(F)cc3)n2n1	4.88
O=C(O)C(F)(F)F.[H][C@@]12CNC(=O)[C@@H](C)[C@]1([H])CN(Cc1ccc3c(c1)OCO3)C2	0.361
CC(C)c1nc(C2CCCN(C(=O)c3cccc4c3OCO4)C2)no1 (centres unmarked)	1.75
CN(C)CCN1CCC2(CC1)CN(Cc1cccnc1)C(=O)CO2.O=C(O)C(F)(F)F.O=C(O)C(F)(F)F.O=C(O)C(F)(F)F	14.51
N#Cc1cc(F)ccc1CN1CCCC1Cn1cccn1 (centres unmarked)	16.49
O=C(CCC1CC1)N1CCC(n2cc(C3(O)CCCC3)nn2)CC1	-37.38 & -22.59
COC(CNC(=O)N1CCC(n2cncn2)CC1)c1ccccc1 (centres unmarked)	-18.85
CN(CC(=O)N1CCC(Oc2ccc(C(F)(F)F)cn2)CC1)S(C)(=O)=O	2.059
CCC(O)CN1CCN(C(=O)CCc2c(C)noc2Cl)CC1 (centres unmarked)	-83.21
Cc1ccc(Cl)cc1N1CCC(CNC(=O)CCn2ccnn2)C1 (centres unmarked)	-4.831
[H][C@@]12CCN(C(=O)c3c(C)noc3C)C[C@@]1([H])O[C@H](c1nccs1)C2	-12.19
[H][C@@]12COC[C@]1([H])[C@@H](OCc1cccnc1)CN2C(=O)c1cscn1	-2.719
CC(=O)N1CCCN(C(=O)NCCc2ccc(Cl)s2)CC1	-2.148
CCS(=O)(=O)N1CCC(OC)c2ccccc2N(CC(=O)NC)C(=O)C1 (centres unmarked)	-25.89
CCOC(=O)c1n[nH]cc1-c1cncn1CCn1nc(C)c(Cl)c1C	7.822

Once more, the final 4:

Result for [H][C@@]12COC[C@]1([H])[C@@H](OCc1cccnc1)CN2C(=O)c1cscn1 was -2.719%.
Result for CC(=O)N1CCCN(C(=O)NCCc2ccc(Cl)s2)CC1 was -2.148%.
Result for CCS(=O)(=O)N1CCC(OC)c2ccccc2N(CC(=O)NC)C(=O)C1 (centres unmarked) was -25.89%.
Result for CCOC(=O)c1n[nH]cc1-c1cncn1CCn1nc(C)c(Cl)c1C was 7.822%.